Publication PMC9848270, “Synthesis and biological assessment of indole derivatives containing penta-heterocycles scaffold as novel anticancer agents towards A549 and K562 cells” (Journal of Enzyme Inhibition and Medicinal Chemistry, 2023)

System: human non-small cell lung cancer cells (A549)
Experiment: MTT antiproliferative assay, A549
Format: cell-based
Conditions: selectivity index, ratio CC50 (HEK293)/IC50 (A549)
Method: A549, PC-3, HepG2 and K562 cells were purchased from the Kunming cell bank of the Chinese academy of sciences. All cell lines were cultured in DMEM or RPMI 1640 complete medium. Logarithmic growth cells were cultured in 96-well plates at a concentration of 10^4 cells per well and pre-cultured for 24 h before adding test compounds. The MTT test with 5-Fluorouracil and Gefitinib as reference compounds were used to evaluate antiproliferative activity of target compounds in four human cancer line cells. For the estimation of the inhibition concentration (IC50), the Graph Pad Prism (GraphPad Software, San Diego, CA) was used.

Nn1c(SCC(=O)Nc2cc(-c3c[nH]c4ccccc34)n[nH]2)nnc1-c1cccnc1 [Compound 11h, N-(3-(1H-indol-3-yl)-1H-pyrazol-5-yl)-2-((4-amino-5-(pyridine-3-yl)-4H-1,2,4-triazol-3-yl)thio)acetamide]
SI (A549): 1.56
